According to the supplement of paper PMC10849652:
Some of the results follow.

The chains behind the UniProt entries cited, without tags or fusion partners. Where a name states a change or a piece, a line headed by the entry shows the natural chain unless it says otherwise.
UniProt P16118: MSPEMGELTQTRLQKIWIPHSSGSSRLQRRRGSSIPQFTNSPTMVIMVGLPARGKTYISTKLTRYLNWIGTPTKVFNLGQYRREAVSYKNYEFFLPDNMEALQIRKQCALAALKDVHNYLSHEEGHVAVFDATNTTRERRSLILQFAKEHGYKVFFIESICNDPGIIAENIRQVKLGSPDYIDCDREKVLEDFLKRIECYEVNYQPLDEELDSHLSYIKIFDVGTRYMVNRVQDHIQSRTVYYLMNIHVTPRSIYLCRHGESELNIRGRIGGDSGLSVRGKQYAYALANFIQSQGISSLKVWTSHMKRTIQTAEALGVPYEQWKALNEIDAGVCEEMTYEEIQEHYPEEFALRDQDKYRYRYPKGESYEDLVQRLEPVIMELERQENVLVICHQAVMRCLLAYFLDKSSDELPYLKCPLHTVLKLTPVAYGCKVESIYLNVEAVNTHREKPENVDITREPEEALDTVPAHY
UniProt P12955: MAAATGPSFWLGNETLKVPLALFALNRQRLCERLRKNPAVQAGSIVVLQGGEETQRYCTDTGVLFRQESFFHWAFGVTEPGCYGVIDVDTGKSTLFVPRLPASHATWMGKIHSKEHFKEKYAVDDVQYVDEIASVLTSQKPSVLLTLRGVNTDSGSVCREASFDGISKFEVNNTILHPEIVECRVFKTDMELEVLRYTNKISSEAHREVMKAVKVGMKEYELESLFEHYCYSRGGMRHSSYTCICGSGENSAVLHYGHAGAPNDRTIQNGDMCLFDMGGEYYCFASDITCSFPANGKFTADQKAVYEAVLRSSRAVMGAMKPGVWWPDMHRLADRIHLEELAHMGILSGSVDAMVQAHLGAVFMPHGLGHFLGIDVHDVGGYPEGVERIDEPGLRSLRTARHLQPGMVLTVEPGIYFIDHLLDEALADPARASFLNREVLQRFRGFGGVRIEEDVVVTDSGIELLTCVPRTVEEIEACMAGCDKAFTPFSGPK
UniProt Q5EBL8: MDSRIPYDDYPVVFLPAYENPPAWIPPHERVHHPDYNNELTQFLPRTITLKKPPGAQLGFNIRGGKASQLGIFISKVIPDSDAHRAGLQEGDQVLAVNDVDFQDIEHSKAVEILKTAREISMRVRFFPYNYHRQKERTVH
UniProt Q8N5Y8: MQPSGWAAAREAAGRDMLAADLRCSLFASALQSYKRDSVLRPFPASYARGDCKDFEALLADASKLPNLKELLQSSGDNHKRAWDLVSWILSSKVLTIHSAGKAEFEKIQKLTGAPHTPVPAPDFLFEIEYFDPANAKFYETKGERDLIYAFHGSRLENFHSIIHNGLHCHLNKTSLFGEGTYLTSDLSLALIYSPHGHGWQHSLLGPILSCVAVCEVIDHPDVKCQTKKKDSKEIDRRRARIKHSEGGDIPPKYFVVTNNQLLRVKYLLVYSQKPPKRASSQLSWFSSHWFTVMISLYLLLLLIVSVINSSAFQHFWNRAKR
UniProt Q9HBI1: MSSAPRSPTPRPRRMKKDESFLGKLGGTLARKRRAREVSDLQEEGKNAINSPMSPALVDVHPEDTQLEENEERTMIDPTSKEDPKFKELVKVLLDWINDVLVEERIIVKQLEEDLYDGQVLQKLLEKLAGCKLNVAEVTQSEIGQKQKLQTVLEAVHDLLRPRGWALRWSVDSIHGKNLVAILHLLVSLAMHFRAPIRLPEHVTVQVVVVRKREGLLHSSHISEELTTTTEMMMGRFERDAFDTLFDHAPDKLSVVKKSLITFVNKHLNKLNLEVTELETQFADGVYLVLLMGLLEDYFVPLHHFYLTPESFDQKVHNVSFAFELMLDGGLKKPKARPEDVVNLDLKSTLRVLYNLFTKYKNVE
UniProt Q460N5, whole entry, looked up: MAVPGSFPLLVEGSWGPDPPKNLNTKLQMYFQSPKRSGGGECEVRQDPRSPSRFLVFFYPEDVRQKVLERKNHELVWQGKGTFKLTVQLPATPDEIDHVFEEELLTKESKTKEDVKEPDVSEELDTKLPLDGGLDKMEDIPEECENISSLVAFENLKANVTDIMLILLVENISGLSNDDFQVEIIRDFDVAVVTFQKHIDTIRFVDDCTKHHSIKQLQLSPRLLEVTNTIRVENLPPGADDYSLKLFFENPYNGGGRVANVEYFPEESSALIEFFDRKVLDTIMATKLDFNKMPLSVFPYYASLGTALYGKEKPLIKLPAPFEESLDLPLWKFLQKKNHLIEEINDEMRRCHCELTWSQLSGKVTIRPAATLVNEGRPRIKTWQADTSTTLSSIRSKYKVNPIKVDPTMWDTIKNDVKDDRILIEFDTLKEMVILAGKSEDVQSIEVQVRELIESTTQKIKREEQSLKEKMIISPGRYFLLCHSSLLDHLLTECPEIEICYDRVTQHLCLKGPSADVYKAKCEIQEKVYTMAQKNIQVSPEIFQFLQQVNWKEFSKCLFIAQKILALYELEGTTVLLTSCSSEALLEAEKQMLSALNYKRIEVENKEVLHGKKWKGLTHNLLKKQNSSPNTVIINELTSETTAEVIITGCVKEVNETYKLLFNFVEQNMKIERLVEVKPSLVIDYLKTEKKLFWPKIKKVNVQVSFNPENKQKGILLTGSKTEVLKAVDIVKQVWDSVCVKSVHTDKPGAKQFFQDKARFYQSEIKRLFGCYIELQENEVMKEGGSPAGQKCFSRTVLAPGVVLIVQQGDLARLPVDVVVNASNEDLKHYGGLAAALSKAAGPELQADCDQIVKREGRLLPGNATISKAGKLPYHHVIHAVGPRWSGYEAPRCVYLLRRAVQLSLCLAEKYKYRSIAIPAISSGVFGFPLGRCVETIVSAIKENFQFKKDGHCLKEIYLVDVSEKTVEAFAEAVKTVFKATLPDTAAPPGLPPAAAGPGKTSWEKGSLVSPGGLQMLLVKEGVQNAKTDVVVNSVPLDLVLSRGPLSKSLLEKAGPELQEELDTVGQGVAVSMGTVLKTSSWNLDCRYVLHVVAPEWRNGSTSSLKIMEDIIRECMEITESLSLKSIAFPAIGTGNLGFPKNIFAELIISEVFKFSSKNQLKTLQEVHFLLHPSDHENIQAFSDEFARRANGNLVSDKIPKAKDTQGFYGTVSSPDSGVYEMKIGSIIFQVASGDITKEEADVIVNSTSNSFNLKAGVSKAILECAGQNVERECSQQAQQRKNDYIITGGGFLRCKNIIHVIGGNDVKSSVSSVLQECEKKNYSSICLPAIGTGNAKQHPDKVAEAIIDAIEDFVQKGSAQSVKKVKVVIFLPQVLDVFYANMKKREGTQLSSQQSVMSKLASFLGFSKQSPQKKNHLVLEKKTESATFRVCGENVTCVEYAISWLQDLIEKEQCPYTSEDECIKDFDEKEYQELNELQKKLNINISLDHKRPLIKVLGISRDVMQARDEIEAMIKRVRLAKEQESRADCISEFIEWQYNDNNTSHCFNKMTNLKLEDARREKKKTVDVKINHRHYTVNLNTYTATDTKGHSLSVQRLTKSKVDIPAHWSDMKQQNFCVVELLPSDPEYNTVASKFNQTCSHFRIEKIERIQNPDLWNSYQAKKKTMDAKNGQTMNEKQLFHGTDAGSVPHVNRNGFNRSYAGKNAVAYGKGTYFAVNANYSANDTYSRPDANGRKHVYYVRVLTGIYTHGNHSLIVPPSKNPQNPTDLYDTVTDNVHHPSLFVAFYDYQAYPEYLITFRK
UniProt Q8WUM4: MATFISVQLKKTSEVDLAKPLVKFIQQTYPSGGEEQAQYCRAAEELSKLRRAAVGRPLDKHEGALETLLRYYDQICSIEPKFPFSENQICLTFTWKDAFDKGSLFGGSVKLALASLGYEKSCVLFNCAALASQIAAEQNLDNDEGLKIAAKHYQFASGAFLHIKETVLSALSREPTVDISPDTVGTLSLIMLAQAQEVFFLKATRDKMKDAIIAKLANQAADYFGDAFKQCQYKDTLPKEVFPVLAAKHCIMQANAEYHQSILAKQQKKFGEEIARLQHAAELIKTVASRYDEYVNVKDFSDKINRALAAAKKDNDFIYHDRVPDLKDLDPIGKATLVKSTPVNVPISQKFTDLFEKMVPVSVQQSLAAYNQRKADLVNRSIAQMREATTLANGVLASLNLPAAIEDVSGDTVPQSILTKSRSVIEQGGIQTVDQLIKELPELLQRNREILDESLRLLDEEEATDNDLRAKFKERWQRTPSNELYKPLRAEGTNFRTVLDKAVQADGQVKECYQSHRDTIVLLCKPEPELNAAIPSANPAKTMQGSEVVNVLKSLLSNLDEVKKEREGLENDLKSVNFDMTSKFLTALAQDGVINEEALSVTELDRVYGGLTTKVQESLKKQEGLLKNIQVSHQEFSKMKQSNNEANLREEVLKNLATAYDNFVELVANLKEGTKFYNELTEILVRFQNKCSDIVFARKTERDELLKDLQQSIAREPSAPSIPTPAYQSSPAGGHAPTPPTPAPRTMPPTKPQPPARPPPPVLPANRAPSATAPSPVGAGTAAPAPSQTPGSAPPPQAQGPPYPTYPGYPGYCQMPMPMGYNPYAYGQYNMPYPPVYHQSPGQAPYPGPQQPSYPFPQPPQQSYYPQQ
UniProt Q16875: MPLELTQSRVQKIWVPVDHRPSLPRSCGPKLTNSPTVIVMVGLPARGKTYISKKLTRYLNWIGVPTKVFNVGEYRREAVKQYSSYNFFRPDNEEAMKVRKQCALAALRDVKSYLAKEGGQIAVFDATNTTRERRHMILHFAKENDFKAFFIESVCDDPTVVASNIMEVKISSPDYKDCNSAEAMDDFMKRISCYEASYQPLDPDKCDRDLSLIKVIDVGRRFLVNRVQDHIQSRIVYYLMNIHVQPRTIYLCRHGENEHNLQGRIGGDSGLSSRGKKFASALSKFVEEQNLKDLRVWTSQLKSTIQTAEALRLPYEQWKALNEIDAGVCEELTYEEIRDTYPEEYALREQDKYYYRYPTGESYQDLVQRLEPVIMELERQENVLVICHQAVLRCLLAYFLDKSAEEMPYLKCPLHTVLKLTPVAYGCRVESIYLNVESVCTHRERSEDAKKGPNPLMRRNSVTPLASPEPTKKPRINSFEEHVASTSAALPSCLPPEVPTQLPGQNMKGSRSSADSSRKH
UniProt Q92968: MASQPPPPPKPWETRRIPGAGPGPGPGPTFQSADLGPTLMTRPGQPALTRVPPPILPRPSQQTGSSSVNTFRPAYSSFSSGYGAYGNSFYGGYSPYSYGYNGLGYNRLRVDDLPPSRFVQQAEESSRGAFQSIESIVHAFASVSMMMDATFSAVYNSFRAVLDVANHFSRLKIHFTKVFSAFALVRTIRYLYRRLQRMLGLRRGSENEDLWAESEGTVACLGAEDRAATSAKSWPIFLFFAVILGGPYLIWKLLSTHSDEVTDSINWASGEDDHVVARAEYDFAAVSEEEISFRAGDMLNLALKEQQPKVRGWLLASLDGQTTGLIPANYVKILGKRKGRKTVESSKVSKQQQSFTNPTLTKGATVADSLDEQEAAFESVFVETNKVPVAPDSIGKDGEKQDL
UniProt Q8IZL8: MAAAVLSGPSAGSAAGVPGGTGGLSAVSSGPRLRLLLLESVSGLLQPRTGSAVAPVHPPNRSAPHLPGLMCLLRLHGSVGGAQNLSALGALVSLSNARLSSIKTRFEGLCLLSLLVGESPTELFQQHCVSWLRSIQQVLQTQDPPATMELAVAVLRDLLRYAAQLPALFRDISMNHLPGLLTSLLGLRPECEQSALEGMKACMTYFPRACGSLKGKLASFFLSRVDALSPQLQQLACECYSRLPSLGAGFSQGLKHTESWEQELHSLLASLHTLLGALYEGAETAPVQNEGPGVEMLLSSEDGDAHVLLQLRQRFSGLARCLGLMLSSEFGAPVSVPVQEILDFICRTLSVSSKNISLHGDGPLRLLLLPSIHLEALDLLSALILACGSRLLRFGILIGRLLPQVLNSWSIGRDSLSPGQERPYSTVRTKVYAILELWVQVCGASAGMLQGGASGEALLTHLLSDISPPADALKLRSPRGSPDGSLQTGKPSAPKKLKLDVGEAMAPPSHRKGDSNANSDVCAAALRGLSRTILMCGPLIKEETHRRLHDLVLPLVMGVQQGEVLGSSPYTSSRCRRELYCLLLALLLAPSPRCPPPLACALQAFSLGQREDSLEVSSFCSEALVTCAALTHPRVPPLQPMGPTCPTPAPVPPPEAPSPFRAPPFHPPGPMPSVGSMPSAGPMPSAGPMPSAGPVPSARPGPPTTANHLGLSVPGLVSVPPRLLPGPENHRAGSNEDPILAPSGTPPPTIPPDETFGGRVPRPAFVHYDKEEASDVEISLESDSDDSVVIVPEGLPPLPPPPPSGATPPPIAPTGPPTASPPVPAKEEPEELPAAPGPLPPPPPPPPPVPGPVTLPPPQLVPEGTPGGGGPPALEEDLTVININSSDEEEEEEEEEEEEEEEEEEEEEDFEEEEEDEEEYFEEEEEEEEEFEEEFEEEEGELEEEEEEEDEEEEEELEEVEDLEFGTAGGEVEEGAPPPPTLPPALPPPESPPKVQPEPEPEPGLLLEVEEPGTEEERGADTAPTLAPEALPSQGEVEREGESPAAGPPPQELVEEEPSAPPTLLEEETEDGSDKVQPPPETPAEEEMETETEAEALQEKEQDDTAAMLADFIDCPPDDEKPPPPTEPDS

Assays:
Test in all cases: log2 fold change, soluble protein after heating vs DMSO (PISA); higher = thermal stabilisation; K562 lysate, 10 uM; active = over 0.2 and 3.5 SD of the protein, either way, in both replicates (recomputed)
erlotinib = compound: C#Cc1cccc(Nc2ncnc3cc(OCCOC)c(OCCOC)cc23)c1 [erlotinib]
How it was run: (§1)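 Pellets of K562 cells were dounce-homogenised in PBS pH 7.4 with 1 mM MgCl2, and the crude extract was held at 1 mg/mL protein for a 30 min treatment with 10 μM compound. Aliquots were heated for 3 min over 48°C-58°C and pooled before NP-40 was added to 0.5% at 4°C. The supernatant from 21,000xg for 90 min was quantified by TMTpro 16plex LC-MS/MS with channel sums equalised. Values are reported from duplicates as log-two fold change in thermal stability relative to solvent controls.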

[1] = compound: C/C(=N\NC(=O)C1=CC(=CC=C1)S(=O)(=O)N2CCOCC2)/C3=C(C=CC(=C3)Cl)O
How it was run: as §1

[2] = compound: C1=CC(=CC=C1C2=NC3=C(N2)C=C(C=C3)C(=O)N)OC4=CC=C(C=C4)Cl
How it was run: as §1

[3] = compound: C1=CC2=C(C=CC(=C2)/C=C\3/C(=O)NC(=NCC4=CC=CS4)S3)N=C1
How it was run: as §1

[4] = compound: C1=CC2=NC=CN=C2C=C1/C=C/3\C(=O)NC(=O)S3
How it was run: as §1

[5] = compound: C1=CC=C(C=C1)C2=NC(=C(N2)C3=CC=NC=C3)C4=CC(=C(C=C4)Cl)O
How it was run: as §1

[6] = compound: C1=CC=C2C(=C1)C3=NNC4=CC=CC(=C43)C2=O
How it was run: as §1

[7] = compound: C1CCN(C1)C(=O)NC2=CC=CC(=C2)NC3=NC=C(C(=N3)NCCC4=CN=CN4)Br
How it was run: as §1

[8] = compound: C1CN(CCC1(CC2=CC=C(C=C2)Cl)N)C3=NC=NC4=C3C=CN4
How it was run: as §1

IRAK-1-4 Inhibitor I = compound: C1COCCN1CCN2C3=CC=CC=C3N=C2NC(=O)C4=CC(=CC=C4)[N+](=O)[O-] [IRAK-1-4 Inhibitor I]
How it was run: as §1

Measured: log2 fold change

PFKFB1 (UniProt P16118)
inactive: erlotinib -0.126 | [1] -0.031 | [2] 0.133 | [3] 0.076 | [4] -0.017 | [5] 0.01 | [6] 0.006 | [7] -0.02 | [8] -0.002 | IRAK-1-4 Inhibitor I 0.109

PEPD (UniProt P12955)
inactive: erlotinib -0.005 | [1] 0.162 | [2] 0.016 | [3] 0.004 | [4] 0.015 | [5] 0.01 | [6] 0.012 | [7] 0.01 | [8] -0.018 | IRAK-1-4 Inhibitor I 0.081

PEBP1 (UniProt P30086)
inactive: erlotinib 0.003 | [1] -0.032 | [2] -0.003 | [3] 0.001 | [4] 0.013 | [5] 0.008 | [6] 0.029 | [7] 0.014 | [8] -0.009 | IRAK-1-4 Inhibitor I 0.007

PEX19 (UniProt P40855)
inactive: erlotinib -0.001 | [1] -0.06 | [2] 0.042 | [3] 0.021 | [4] -0.033 | [5] -0.007 | [6] -0.019 | [7] -0.013 | [8] 0.059 | IRAK-1-4 Inhibitor I 0.024

PDE12 (UniProt Q6L8Q7)
inactive: erlotinib 0.034 | [1] 0.029 | [2] -0.018 | [3] 0.003 | [4] 0.003 | [5] 0.029 | [6] -0.029 | [7] -0.04 | [8] 0.01 | IRAK-1-4 Inhibitor I 0.034

PDCL3 (UniProt Q9H2J4)
inactive: erlotinib 0.008 | [1] -0.042 | [2] 0.006 | [3] -0.024 | [4] -0.01 | [5] 0.015 | [6] -0.014 | [7] -0.027 | [8] 0.008 | IRAK-1-4 Inhibitor I 0.021

PDZD11 isoform 2 (UniProt Q5EBL8)
inactive: erlotinib -0.005 | [1] 0.007 | [2] 0.004 | [3] -0.024 | [4] -0.03 | [5] 0.045 | [6] 0.025 | [7] -0.034 | [8] 0.049 | IRAK-1-4 Inhibitor I -0.012

Random excerpt: two entries already listed, in no set order.
PDE12 (UniProt Q6L8Q7)
inactive: erlotinib 0.034 | [1] 0.029 | [2] -0.018 | [3] 0.003 | [4] 0.003 | [5] 0.029 | [6] -0.029 | [7] -0.04 | [8] 0.01 | IRAK-1-4 Inhibitor I 0.034

PDZD11 isoform 2 (UniProt Q5EBL8)
inactive: erlotinib -0.005 | [1] 0.007 | [2] 0.004 | [3] -0.024 | [4] -0.03 | [5] 0.045 | [6] 0.025 | [7] -0.034 | [8] 0.049 | IRAK-1-4 Inhibitor I -0.012

Remaining list, next part:

PARP16 isoform 3 (UniProt Q8N5Y8)
inactive: erlotinib -0.045 | [1] 0.066 | [2] -0.011 | [3] 0.097 | [4] 0.039 | [5] -0.015 | [6] -0.125 | [7] -0.089 | [8] 0.05 | IRAK-1-4 Inhibitor I 0.057

PARVB (UniProt Q9HBI1)
inactive: erlotinib 0.043 | [1] -0.057 | [2] -0.009 | [3] 0.013 | [4] -0.012 | [5] 0.005 | [6] -0.018 | [7] 0.018 | [8] 0.031 | IRAK-1-4 Inhibitor I 0.017

PDSS2 (UniProt Q86YH6)
inactive: erlotinib -0.008 | [1] 0.19 | [2] 0.012 | [3] 0.014 | [4] -0.043 | [5] -0.026 | [6] 0.114 | IRAK-1-4 Inhibitor I 0.082

PDCD2L (UniProt Q9BRP1)
inactive: erlotinib 0.078 | [1] -0.065 | [2] 0.001 | [3] 0.023 | [4] 0.022 | [5] 0.035 | [6] -0.058 | [7] -0.038 | [8] 0.005 | IRAK-1-4 Inhibitor I -0.005

PBX2 (UniProt P40425)
inactive: erlotinib 0.007 | [1] -0.24 | [2] -0.031 | [3] 0.059 | [4] -0.015 | [5] 0.023 | [6] -0.048 | [7] 0.008 | [8] -0.03 | IRAK-1-4 Inhibitor I 0.005

PFKM isoform 3 (UniProt P08237)
inactive: erlotinib 0.005 | [1] -0.004 | [2] 0.052 | [3] 0.011 | [4] 0.02 | [5] 0.004 | [6] -0.018 | [7] 0.011 | [8] 0.024 | IRAK-1-4 Inhibitor I -0.001

PARP14 (UniProt Q460N5)
inactive: erlotinib 0.06 | [1] -0.037 | [2] 0.012 | [3] -0.032 | [4] 0.081 | [5] 0.005 | [6] -0.166 | [7] -0.025 | [8] 0.062 | IRAK-1-4 Inhibitor I -0.095

PEAK1 (UniProt Q9H792)
inactive: erlotinib 0.13 | [1] 0.028 | [2] -0.03 | [3] 0.237 | [4] -0.02 | [5] 0.045 | [6] -0.22 | IRAK-1-4 Inhibitor I -0.061

PDCD6IP (UniProt Q8WUM4)
inactive: erlotinib -0.016 | [1] 0.021 | [2] -0.036 | [3] 0 | [4] 0.108 | [5] 0.03 | [6] 0.013 | [7] 0.07 | [8] 0.012 | IRAK-1-4 Inhibitor I -0.094

PCCA (UniProt P05165)
inactive: erlotinib -0.028 | [1] 0.025 | [2] 0.003 | [3] 0.02 | [4] -0.004 | [5] -0.059 | [6] -0.038 | [7] -0.044 | [8] 0.014 | IRAK-1-4 Inhibitor I 0.053

PFKFB3 isoform 4 (UniProt Q16875)
inactive: erlotinib -0.006 | [1] -0.021 | [2] 0.028 | [3] -0.033 | [4] 0.011 | [5] -0.034 | [6] -0.035 | [7] 0.032 | [8] 0.002 | IRAK-1-4 Inhibitor I 0.004

PEX13 (UniProt Q92968)
inactive: erlotinib 0.01 | [1] -0.137 | [2] -0.157 | [3] 0.079 | [4] 0.042 | [5] -0.015 | [6] -0.046 | [7] 0.154 | [8] 0.135 | IRAK-1-4 Inhibitor I -0.059

PELP1 (UniProt Q8IZL8)
inactive: erlotinib 0.025 | [1] 0.165 | [2] -0.019 | [3] -0.101 | [4] 0.014 | [5] -0.022 | [6] -0.046 | [7] 0.06 | [8] -0.044 | IRAK-1-4 Inhibitor I 0.006

PGAM1 (UniProt P18669)
inactive: erlotinib -0.014 | [1] 0.017 | [2] 0.015 | [3] 0.002 | [4] -0.003 | [5] 0.03 | [6] 0.001 | [7] 0.021 | [8] 0.018 | IRAK-1-4 Inhibitor I 0.015

PDE2A (UniProt O00408)
inactive: erlotinib -0.015 | [1] 0.082 | [2] 0.12 | [3] -0.337 | [4] -0.055 | [5] 0.249 | [6] -0.257 | [7] 0.001 | [8] -0.027 | IRAK-1-4 Inhibitor I 0.18

PGD (UniProt P52209)
inactive: erlotinib -0.026 | [1] -0.015 | [2] -0.005 | [3] -0.007 | [4] -0.004 | [5] 0.009 | [6] -0.026 | [7] 0.008 | [8] -0.02 | IRAK-1-4 Inhibitor I -0.004
